System: primary VSMC
Experiment: Time course of peptide penetration in VSMC (FITC fluorescence)
Assay type: cell-based, mouse
Conditions: FITC-tagged version of the peptide
Method: A. Schematic representation of the cell-permeable PI3Kγ competing peptide. The 126-150 region of PI3Kγ was fused to the cell-penetrating peptide Penetratin 1 (P1). A control peptide was generated by insertion of two point mutations (K>A and R>A at position 1 and 5 of the PI3Kγ sequence, respectively). B. RAW macrophages were pre-treated with vehicle, the PI3Kγ peptide (10 μM) or the PI3Kγ kinase inhibitor AS605240 (1 μM) for 1 hour and then with C5a (50 μM) for 5 minutes. Representative Western blot images of phospho-AKT (Ser-473) and total AKT (left) and ratio quantification (right) are shown. GAPDH was used as loading control. n=3. C. Incorporation by primary VSMC of a FITC-labelled PI3Kγ peptide at 1 h, 5 h, 24 h and 30 h after incubation. D. Quantification of FITC-associated fluorescence intensity inside VSMC area.

## RQIKIWFQNRRMKWKKGKATHRSPGQIHLVQRHPPSEESQAF (KIT2014) [PI3Kγ peptide, The 126-150 region of PI3Kγ fused to the cell-penetrating peptide Penetratin 1 (P1)]
  time after incubation at which peptide was still detectable: 30 h
  time after which peptide was detectable in cells: 5 h

Reference: patent publication US20230234996A1, “PI3K GAMMA INHIBITOR PEPTIDE FOR TREATMENT OF FIBROPROLIFERATIVE VASCULAR DISEASES” (Kither Biotech S.r.l., priority 2020, published 2023)
